Data source: PubChem BioAssay AID1224830 (NIAID, 2016)

Purpose: 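Regulators of TLR4 signalling towards TNF-alpha in macrophage-like cells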 (primary screen)
Cells: human THP-1 monocytic leukaemia cells, TNF dual-luciferase reporter clone, PMA-differentiated to macrophage-like cells
Reagent: siRNA pool against human genes, 50 nM
Time to read-out: LPS for 4 h, given about 3 days after siRNA transfection
Conditions: bacterial LPS (TLR4 ligand), 10 ng/ml
Measurement: 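Ratio of firefly to renilla light, scaled to the plate median and expressed as a robust z-score per replicate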
Reading the numbers: TNF reporter robust z-score: higher = stronger TNF reporter response to LPS
Active means: 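Each well counts as active if its z-score is over 2.8 or under -1.5; controls are left without a call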
In all, the deposit lists about 18,000 reagents; this is a part drawn at random. About 2,900 of all reagents (16%) count as active. 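Calls are made per well; low scores hint the gene aids the LPS response, high scores that it dampens it.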 Repeated entries: four replicate wells of each siRNA pool.

Target gene | TNF reporter robust z-score | Outcome
SYT13 (synaptotagmin 13) | -0.94 | inactive
SYT13 (synaptotagmin 13) | 0.68 | inactive
SYT13 (synaptotagmin 13) | 0.83 | inactive
SYT13 (synaptotagmin 13) | 1.22 | inactive
OCIAD1 (OCIA domain containing 1) | -0.56 | inactive
OCIAD1 (OCIA domain containing 1) | -0.99 | inactive
OCIAD1 (OCIA domain containing 1) | -0.9 | inactive
OCIAD1 (OCIA domain containing 1) | 0.65 | inactive
RAPGEF4 (Rap guanine nucleotide exchange factor 4) | -0.13 | inactive
RAPGEF4 (Rap guanine nucleotide exchange factor 4) | 0.22 | inactive
RAPGEF4 (Rap guanine nucleotide exchange factor 4) | 3.62 | active
RAPGEF4 (Rap guanine nucleotide exchange factor 4) | -0.32 | inactive
PSMG1 (proteasome assembly chaperone 1) | -0.36 | inactive
PSMG1 (proteasome assembly chaperone 1) | 0.14 | inactive
PSMG1 (proteasome assembly chaperone 1) | -0.84 | inactive
PSMG1 (proteasome assembly chaperone 1) | -0.46 | inactive
AXDND1 (axonemal dynein light chain domain containing 1) | -1.03 | inactive
AXDND1 (axonemal dynein light chain domain containing 1) | -1.48 | inactive
AXDND1 (axonemal dynein light chain domain containing 1) | -1.18 | inactive
AXDND1 (axonemal dynein light chain domain containing 1) | -0.5 | inactive
TAS2R4 (taste 2 receptor member 4) | -1.12 | inactive
TAS2R4 (taste 2 receptor member 4) | -0.7 | inactive
TAS2R4 (taste 2 receptor member 4) | -0.64 | inactive
TAS2R4 (taste 2 receptor member 4) | -0.3 | inactive
SHKBP1 (SH3KBP1 binding protein 1) | 0.4 | inactive
SHKBP1 (SH3KBP1 binding protein 1) | 1.47 | inactive
SHKBP1 (SH3KBP1 binding protein 1) | 0.58 | inactive
CDX1 (caudal type homeobox 1) | 0.75 | inactive
CDX1 (caudal type homeobox 1) | 1.38 | inactive
CDX1 (caudal type homeobox 1) | 1.52 | inactive
CDX1 (caudal type homeobox 1) | 1.47 | inactive
AMIGO3 (adhesion molecule with Ig like domain 3) | -0.36 | inactive
AMIGO3 (adhesion molecule with Ig like domain 3) | 0.19 | inactive
AMIGO3 (adhesion molecule with Ig like domain 3) | 0.05 | inactive
AMIGO3 (adhesion molecule with Ig like domain 3) | 0.42 | inactive
OR4A47 (olfactory receptor family 4 subfamily A member 47) | 1.12 | inactive
OR4A47 (olfactory receptor family 4 subfamily A member 47) | 1.35 | inactive
OR4A47 (olfactory receptor family 4 subfamily A member 47) | 0.46 | inactive
OR4A47 (olfactory receptor family 4 subfamily A member 47) | 1.08 | inactive
ZNF462 (zinc finger protein 462) | -0.85 | inactive
ZNF462 (zinc finger protein 462) | -1.13 | inactive
ZNF462 (zinc finger protein 462) | -1.63 | active
ZNF462 (zinc finger protein 462) | -1.2 | inactive
RNF19B (ring finger protein 19B) | 0.21 | inactive
RNF19B (ring finger protein 19B) | 0.27 | inactive
RNF19B (ring finger protein 19B) | -0.07 | inactive
RNF19B (ring finger protein 19B) | 1.76 | inactive
CLPSL1 (colipase like 1) | -1.38 | inactive
CLPSL1 (colipase like 1) | -0.55 | inactive
CLPSL1 (colipase like 1) | -0.52 | inactive
CLPSL1 (colipase like 1) | 0.78 | inactive
FOS (Fos proto-oncogene, AP-1 transcription factor subunit) | -0.85 | inactive
FOS (Fos proto-oncogene, AP-1 transcription factor subunit) | 0.55 | inactive
FOS (Fos proto-oncogene, AP-1 transcription factor subunit) | 0.62 | inactive
FOS (Fos proto-oncogene, AP-1 transcription factor subunit) | 0.7 | inactive
RDM1 (RAD52 motif containing 1) | 0.78 | inactive
RDM1 (RAD52 motif containing 1) | 1.12 | inactive
RDM1 (RAD52 motif containing 1) | -0.73 | inactive
RDM1 (RAD52 motif containing 1) | 0.9 | inactive
ATP9B (ATPase phospholipid transporting 9B) | 0.48 | inactive
ATP9B (ATPase phospholipid transporting 9B) | 0.99 | inactive
ATP9B (ATPase phospholipid transporting 9B) | 0.08 | inactive
ATP9B (ATPase phospholipid transporting 9B) | 1.28 | inactive
RMDN3 (regulator of microtubule dynamics 3) | -0.85 | inactive
RMDN3 (regulator of microtubule dynamics 3) | -2.02 | active
RMDN3 (regulator of microtubule dynamics 3) | -1.73 | active
RMDN3 (regulator of microtubule dynamics 3) | 0.06 | inactive
SLC5A11 | -0.32 | inactive
SLC5A11 | 0.28 | inactive
SLC5A11 | -0.34 | inactive
SLC5A11 | -0.41 | inactive
C14orf184 (retired record) | 1.35 | inactive
C14orf184 (retired record) | -0.01 | inactive
C14orf184 (retired record) | -1.23 | inactive
C14orf184 (retired record) | 0.93 | inactive

Hits (from the list above):
Target gene | TNF reporter robust z-score | Outcome
RAPGEF4 (Rap guanine nucleotide exchange factor 4) | 3.62 | active
ZNF462 (zinc finger protein 462) | -1.63 | active
RMDN3 (regulator of microtubule dynamics 3) | -2.02 | active
RMDN3 (regulator of microtubule dynamics 3) | -1.73 | active
